Results on one molecule are retold here after patent publication US11339175B2, “Thiol-based fluorescent probe for reactive species” (The Board of Trustees of the University of Illinois, priority 2018, dated 2022).

This data set relates to MDA-MB-231 cells. Description: Subcellular localization, co-incubation with LysoTracker Red. It counts as cell-based, human.

As to `CC(C)(S)C(=O)Oc1c(Cl)cc2c(c1Cl)Oc1cc(O)ccc1C21OCc2ccccc21` (centres unmarked) [NitroxylFluor], the subcellular localization entry (MDA-MB-231 cells) is given as “lysosomal”. In addition, the “Pearson's Coefficient of overlap with LysoTracker Red” value (after Angeli's salt treatment (250 μM), roughly 5 minutes at 25° C., n=5) turned out to be 0.932±0.01.
